Values from PubChem BioAssay AID1259308 (NCATS, 2017)
Aim: 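Knock-downs that increase output of a recombinant reporter protein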 (primary screen). Cell system: human HEK293 embryonic kidney cells stably expressing firefly luciferase (HEK-CMV-Luc2-Hygro). Reagent: single siRNA against human genes, 0.8 pmol siRNA per well. Timing: 72 h. Read-out: 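Reporter luminescence and viable-cell signal on separate replicate plates, given as percent of non-targeting control and median/MAD z-scores, plus per-cell luciferase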. Direction: total luciferase, z-score: higher = more reporter protein produced. Call rule: 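An siRNA counts as active if its total luciferase robust z-score exceeds 3; genes with two or more such siRNAs out of three were retested with fresh siRNAs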. Meaning of the calls: active = raised luciferase; inactive = no rise.
Shown is one part, drawn at random, of about 59,000 reagents. About 1,510 of all reagents (2.6%) were called active. 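Calls use total luciferase alone and ignore viability, so some active siRNAs may act by altering cell number.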 The numbers tell different reagents against one gene apart. Not all columns of the deposit are shown. No sequences are given here.

Depletion of ZFP36L2 #1 resulted in: total luciferase, z-score -0.382; inactive.
ZFP36L2 #2 scored total luciferase, z-score -3.12; inactive.
Depletion of ZFP36L2 #3 gave: total luciferase, z-score 0.707; inactive.
CHST13 #1 showed total luciferase, z-score 0.486; inactive.
CHST13 #2 scored total luciferase, z-score -0.158; inactive.
Knock-down of CHST13 #3 resulted in: total luciferase, z-score -0.645; inactive.

2 entries already listed, ordered by “total luciferase, z-score”, lowest first:
ZFP36L2 #2: total luciferase, z-score = -3.12; activity call = inactive
ZFP36L2 #3: total luciferase, z-score = 0.707; activity call = inactive

Additional records follow.
Against TBC1D1 #1, the values are total luciferase, z-score 3.03; active.
Depletion of TBC1D1 #2 came out at: total luciferase, z-score 0.153; inactive.
TBC1D1 #3 showed total luciferase, z-score -0.948; inactive.
With knock-down of TRPM6 #1, the screen gave total luciferase, z-score 1.53; inactive.
Against TRPM6 #2, the values are total luciferase, z-score -0.49; inactive.
After knock-down of TRPM6 #3, the screen gave total luciferase, z-score -1.09; inactive.
